Some of the results follow.
Assays:
Assay in all cases: log2 fold change, soluble protein after heating vs DMSO (PISA); higher = thermal stabilisation; K562 lysate, 10 uM; active = over 0.2 and 3.5 SD of the protein, either way, in both replicates (recomputed)
erlotinib = compound: C#Cc1cccc(Nc2ncnc3cc(OCCOC)c(OCCOC)cc23)c1 [erlotinib]
Procedure, shortened: (§1)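 Log-two fold change in thermal stability relative to solvent controls is reported from duplicates. For each sample, crude K562 extract from dounce-homogenised pellets in PBS pH 7.4 with 1 mM MgCl2, at 1 mg/mL protein, was treated with 10 μM compound for 30 min. Aliquots heated for 3 min across 48°C-58°C were pooled, brought to 0.5% NP-40 at 4°C and cleared at 21,000xg for 90 min. The supernatant was quantified by TMTpro 16plex LC-MS/MS with channel sums equalised.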

The chains behind the UniProt entries cited, without tags or fusion partners. Where a name states a change or a piece, a line headed by the entry shows the natural chain unless it says otherwise.
UniProt Q9UMR2: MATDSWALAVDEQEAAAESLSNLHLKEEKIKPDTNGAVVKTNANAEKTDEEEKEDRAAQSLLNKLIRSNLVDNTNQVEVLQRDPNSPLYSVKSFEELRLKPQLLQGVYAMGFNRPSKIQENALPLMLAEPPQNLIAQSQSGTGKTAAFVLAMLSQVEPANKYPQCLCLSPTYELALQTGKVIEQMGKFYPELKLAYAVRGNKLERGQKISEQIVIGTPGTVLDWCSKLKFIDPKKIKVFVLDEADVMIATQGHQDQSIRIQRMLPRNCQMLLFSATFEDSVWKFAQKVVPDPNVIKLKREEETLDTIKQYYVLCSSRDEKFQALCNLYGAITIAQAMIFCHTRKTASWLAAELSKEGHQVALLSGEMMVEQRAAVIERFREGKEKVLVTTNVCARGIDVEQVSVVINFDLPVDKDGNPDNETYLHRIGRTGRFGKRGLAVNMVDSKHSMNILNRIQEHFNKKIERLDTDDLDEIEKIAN
UniProt Q5QP82: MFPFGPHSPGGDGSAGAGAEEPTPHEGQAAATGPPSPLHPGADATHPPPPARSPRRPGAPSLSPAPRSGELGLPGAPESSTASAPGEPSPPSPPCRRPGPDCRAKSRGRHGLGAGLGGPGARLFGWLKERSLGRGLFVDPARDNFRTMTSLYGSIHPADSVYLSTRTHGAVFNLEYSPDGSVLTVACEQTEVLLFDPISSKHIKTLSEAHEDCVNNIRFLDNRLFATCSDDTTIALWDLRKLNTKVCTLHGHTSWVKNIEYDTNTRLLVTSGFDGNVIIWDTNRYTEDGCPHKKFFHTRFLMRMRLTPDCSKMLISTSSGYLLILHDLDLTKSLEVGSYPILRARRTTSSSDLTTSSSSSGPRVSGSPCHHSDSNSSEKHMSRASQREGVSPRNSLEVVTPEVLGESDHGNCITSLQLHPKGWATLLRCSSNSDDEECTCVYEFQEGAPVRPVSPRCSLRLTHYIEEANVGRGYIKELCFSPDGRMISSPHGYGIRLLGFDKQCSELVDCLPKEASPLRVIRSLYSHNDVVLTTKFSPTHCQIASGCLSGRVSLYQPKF
UniProt Q8NCG7: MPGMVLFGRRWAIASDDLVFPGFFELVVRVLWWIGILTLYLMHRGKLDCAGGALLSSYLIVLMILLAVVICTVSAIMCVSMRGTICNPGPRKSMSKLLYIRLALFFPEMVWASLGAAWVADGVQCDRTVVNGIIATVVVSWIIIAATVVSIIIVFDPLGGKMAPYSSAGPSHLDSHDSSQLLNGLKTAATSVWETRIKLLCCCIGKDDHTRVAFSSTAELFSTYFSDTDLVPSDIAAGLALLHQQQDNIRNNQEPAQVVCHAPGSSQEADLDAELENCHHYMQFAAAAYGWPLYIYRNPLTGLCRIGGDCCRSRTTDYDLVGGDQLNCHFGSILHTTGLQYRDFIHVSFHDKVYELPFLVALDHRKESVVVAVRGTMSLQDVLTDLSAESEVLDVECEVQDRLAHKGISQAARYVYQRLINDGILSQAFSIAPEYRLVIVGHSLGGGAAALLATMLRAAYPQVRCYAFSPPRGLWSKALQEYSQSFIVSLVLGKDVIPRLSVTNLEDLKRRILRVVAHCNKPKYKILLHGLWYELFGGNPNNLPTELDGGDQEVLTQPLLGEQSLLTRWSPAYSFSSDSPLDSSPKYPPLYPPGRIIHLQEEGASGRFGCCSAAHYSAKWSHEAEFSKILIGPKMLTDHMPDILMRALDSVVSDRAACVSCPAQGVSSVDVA
UniProt Q9H0S4: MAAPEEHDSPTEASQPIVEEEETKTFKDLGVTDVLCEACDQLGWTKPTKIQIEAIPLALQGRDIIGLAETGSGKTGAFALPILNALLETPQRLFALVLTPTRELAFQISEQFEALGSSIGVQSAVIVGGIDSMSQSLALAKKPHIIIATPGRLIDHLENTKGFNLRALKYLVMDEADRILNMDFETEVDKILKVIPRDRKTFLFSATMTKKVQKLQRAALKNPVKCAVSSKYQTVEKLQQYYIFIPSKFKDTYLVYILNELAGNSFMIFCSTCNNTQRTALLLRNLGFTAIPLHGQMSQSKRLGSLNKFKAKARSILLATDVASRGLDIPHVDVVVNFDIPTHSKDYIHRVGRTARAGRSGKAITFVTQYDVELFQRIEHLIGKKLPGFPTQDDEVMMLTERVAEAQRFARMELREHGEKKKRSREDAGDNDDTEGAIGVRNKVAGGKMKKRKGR
UniProt Q5TAQ9: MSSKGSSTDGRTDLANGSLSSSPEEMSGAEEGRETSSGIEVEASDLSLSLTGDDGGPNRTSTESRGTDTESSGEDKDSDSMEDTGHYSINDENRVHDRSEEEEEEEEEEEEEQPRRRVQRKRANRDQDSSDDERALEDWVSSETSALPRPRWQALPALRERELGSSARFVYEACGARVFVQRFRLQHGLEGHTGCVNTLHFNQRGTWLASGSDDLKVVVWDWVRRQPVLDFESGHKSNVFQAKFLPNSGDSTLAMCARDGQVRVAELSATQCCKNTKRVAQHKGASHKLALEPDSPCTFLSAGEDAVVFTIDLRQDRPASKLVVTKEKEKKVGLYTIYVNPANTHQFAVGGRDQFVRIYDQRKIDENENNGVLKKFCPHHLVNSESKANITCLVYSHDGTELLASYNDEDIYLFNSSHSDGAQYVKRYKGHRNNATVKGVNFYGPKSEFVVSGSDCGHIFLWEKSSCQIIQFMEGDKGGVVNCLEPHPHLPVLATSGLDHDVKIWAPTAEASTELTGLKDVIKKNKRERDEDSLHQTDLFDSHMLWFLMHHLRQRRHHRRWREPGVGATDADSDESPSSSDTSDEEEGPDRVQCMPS
UniProt P0CG12: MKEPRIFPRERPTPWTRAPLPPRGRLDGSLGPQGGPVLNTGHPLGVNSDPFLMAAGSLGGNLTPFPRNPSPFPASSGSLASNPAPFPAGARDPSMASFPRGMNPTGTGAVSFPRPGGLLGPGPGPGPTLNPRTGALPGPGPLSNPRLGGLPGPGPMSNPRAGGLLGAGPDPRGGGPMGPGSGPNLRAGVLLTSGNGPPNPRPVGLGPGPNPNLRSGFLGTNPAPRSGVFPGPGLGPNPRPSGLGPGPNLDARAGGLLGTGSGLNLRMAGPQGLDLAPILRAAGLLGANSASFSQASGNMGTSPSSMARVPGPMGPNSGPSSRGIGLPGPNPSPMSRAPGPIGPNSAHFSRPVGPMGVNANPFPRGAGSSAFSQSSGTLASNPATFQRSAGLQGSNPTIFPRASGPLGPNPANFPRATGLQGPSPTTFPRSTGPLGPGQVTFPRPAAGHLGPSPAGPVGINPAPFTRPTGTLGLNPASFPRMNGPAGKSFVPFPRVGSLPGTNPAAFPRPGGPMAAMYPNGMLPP
UniProt Q9H4E7, whole entry, looked up: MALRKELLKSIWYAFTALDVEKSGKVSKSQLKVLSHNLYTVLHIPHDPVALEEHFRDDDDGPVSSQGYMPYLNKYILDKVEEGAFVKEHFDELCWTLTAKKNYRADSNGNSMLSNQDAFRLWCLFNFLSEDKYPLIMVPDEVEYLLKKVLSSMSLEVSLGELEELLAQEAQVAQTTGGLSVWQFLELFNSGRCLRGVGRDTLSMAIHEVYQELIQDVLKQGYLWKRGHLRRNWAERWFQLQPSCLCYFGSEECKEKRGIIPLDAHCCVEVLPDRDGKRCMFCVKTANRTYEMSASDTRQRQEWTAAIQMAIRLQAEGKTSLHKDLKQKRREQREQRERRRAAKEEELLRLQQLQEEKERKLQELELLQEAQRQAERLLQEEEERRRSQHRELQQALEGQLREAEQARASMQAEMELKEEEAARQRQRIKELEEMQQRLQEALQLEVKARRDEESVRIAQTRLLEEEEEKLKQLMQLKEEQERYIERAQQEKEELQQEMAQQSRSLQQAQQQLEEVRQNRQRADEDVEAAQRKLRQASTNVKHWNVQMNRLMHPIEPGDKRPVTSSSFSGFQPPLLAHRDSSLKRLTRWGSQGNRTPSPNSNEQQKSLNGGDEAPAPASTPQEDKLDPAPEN
UniProt Q96HY6: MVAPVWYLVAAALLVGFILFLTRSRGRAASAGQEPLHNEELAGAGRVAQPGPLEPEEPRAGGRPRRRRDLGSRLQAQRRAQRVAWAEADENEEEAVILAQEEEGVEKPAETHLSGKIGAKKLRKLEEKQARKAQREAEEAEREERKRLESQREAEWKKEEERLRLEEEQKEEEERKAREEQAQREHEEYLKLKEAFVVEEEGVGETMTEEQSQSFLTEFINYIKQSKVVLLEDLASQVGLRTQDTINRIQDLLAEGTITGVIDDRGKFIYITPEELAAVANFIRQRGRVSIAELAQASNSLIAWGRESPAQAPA
UniProt Q58WW2: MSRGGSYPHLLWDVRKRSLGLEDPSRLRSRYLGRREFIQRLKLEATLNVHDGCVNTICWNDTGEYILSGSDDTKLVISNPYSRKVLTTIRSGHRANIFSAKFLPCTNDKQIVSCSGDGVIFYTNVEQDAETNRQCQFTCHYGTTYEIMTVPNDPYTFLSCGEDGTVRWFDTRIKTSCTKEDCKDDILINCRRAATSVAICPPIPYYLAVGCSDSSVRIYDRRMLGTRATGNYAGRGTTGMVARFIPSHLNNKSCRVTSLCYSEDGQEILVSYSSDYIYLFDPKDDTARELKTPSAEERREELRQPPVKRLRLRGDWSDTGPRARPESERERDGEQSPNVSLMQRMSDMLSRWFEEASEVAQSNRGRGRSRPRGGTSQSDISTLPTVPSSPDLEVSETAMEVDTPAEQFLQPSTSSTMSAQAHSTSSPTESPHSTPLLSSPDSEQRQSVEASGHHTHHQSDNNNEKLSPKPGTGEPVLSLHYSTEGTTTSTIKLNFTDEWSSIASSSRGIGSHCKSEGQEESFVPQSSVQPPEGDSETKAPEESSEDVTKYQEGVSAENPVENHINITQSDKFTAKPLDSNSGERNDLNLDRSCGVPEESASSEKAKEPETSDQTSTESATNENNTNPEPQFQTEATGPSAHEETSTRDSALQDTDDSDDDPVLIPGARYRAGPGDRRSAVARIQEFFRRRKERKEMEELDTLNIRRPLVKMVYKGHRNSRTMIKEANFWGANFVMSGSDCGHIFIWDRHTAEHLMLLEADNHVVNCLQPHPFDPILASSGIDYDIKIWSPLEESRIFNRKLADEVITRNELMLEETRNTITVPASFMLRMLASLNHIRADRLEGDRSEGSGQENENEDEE
UniProt Q9Y315: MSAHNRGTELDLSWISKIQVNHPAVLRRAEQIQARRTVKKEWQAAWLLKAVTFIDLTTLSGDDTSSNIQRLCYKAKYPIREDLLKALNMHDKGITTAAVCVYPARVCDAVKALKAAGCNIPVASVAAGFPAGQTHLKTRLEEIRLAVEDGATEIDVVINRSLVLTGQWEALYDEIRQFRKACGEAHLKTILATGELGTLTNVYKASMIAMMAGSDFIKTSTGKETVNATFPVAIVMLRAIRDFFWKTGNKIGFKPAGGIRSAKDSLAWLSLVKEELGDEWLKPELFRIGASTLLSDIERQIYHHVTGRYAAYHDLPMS
UniProt Q16531, whole entry, looked up: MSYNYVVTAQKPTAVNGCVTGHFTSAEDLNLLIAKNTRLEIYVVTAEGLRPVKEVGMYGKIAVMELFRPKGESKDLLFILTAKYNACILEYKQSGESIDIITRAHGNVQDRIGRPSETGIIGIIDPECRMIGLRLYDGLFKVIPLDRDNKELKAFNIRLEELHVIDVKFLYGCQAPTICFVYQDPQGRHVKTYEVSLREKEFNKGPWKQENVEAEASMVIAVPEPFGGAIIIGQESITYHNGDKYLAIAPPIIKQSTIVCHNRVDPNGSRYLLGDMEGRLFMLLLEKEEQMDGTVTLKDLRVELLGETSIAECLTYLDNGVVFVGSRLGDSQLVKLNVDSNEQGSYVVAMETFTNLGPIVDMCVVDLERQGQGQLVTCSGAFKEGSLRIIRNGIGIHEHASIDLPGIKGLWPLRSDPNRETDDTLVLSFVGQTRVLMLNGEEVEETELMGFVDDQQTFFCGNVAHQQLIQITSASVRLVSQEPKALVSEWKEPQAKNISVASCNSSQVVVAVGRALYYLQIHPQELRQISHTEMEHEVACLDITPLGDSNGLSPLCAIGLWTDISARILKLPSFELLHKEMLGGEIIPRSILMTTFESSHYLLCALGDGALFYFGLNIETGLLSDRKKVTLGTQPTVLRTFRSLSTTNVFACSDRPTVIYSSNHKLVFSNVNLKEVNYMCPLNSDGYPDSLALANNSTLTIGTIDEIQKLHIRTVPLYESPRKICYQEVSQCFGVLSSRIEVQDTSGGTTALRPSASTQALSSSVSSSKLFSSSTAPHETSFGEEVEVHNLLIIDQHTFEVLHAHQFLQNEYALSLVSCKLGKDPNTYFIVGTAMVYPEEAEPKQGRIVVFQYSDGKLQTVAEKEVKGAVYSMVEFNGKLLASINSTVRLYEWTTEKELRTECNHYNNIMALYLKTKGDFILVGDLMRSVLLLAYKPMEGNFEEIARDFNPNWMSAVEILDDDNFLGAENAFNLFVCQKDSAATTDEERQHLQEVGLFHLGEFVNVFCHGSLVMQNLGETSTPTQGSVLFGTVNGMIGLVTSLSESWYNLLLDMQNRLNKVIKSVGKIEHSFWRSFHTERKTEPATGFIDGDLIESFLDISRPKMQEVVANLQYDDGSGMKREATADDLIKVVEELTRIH

[1] = compound: C/C(=N\NC(=O)C1=CC(=CC=C1)S(=O)(=O)N2CCOCC2)/C3=C(C=CC(=C3)Cl)O
Procedure, shortened: as §1

[2] = compound: C1=CC(=CC=C1C2=NC3=C(N2)C=C(C=C3)C(=O)N)OC4=CC=C(C=C4)Cl
Procedure, shortened: as §1

[3] = compound: C1=CC2=C(C=CC(=C2)/C=C\3/C(=O)NC(=NCC4=CC=CS4)S3)N=C1
Procedure, shortened: as §1

[4] = compound: C1=CC2=NC=CN=C2C=C1/C=C/3\C(=O)NC(=O)S3
Procedure, shortened: as §1

[5] = compound: C1=CC=C(C=C1)C2=NC(=C(N2)C3=CC=NC=C3)C4=CC(=C(C=C4)Cl)O
Procedure, shortened: as §1

[6] = compound: C1=CC=C2C(=C1)C3=NNC4=CC=CC(=C43)C2=O
Procedure, shortened: as §1

[7] = compound: C1CCN(C1)C(=O)NC2=CC=CC(=C2)NC3=NC=C(C(=N3)NCCC4=CN=CN4)Br
Procedure, shortened: as §1

[8] = compound: C1CN(CCC1(CC2=CC=C(C=C2)Cl)N)C3=NC=NC4=C3C=CN4
Procedure, shortened: as §1

IRAK-1-4 Inhibitor I = compound: C1COCCN1CCN2C3=CC=CC=C3N=C2NC(=O)C4=CC(=CC=C4)[N+](=O)[O-] [IRAK-1-4 Inhibitor I]
Procedure, shortened: as §1

Measured: log2 fold change

DES (UniProt P17661)
inactive: erlotinib 0.014 | [1] 0.012 | [2] 0.023 | [3] -0.074 | [4] -0.016 | [5] -0.026 | [6] -0.018 | [7] 0.048 | [8] 0.1 | IRAK-1-4 Inhibitor I 0.09

DDX19B (UniProt Q9UMR2)
inactive: erlotinib 0.028 | [1] 0.022 | [2] 0.025 | [3] -0.004 | [4] 0.016 | [5] 0.011 | [6] -0.014 | [7] 0.014 | [8] -0.005 | IRAK-1-4 Inhibitor I 0.001

DDX10 (UniProt Q13206)
inactive: erlotinib -0.012 | [1] -0.161 | [2] 0.001 | [3] 0.005 | [4] -0.357 | [5] 0.092 | [6] 0.051 | [7] -0.043 | [8] 0.019 | IRAK-1-4 Inhibitor I -0.094

DCAF1 (UniProt Q9Y4B6)
inactive: erlotinib -0.004 | [1] -0.037 | [2] 0.032 | [3] -0.001 | [4] 0 | [5] 0.003 | [6] -0.004 | [7] -0.017 | [8] -0.022 | IRAK-1-4 Inhibitor I 0.017

DCAF10 (UniProt Q5QP82)
inactive: erlotinib 0.028 | [1] -0.09 | [2] 0.005 | [3] -0.032 | [4] -0.071 | [5] 0.032 | [6] 0.11 | [7] -0.025 | [8] 0.017 | IRAK-1-4 Inhibitor I -0.074

DCUN1D4 isoform 3 (UniProt Q92564)
inactive: erlotinib -0.025 | [1] -0.118 | [2] 0.068 | [3] -0.127 | [4] -0.063 | [5] -0.026 | [6] -0.053 | [7] -0.09 | [8] -0.113 | IRAK-1-4 Inhibitor I 0.005

DDX56 (UniProt Q9NY93)
inactive: erlotinib 0 | [1] -0.087 | [2] 0.073 | [3] -0.126 | [4] -0.036 | [5] 0.001 | [6] -0.016 | [7] -0.003 | [8] 0.068 | IRAK-1-4 Inhibitor I -0.048

DECR2 (UniProt Q9NUI1)
inactive: erlotinib 0.082 | [1] 0.012 | [2] -0.069 | [3] -0.031 | [4] -0.01 | [5] -0.02 | [6] -0.045 | [7] -0.021 | [8] -0.006 | IRAK-1-4 Inhibitor I -0.034

DCAF13 (UniProt Q9NV06)
inactive: erlotinib -0.019 | [1] 0.077 | [2] -0.026 | [3] 0.041 | [4] -0.064 | [5] -0.001 | [6] 0.008 | [7] 0.013 | [8] 0.032 | IRAK-1-4 Inhibitor I 0.002

DAGLB (UniProt Q8NCG7)
inactive: erlotinib -0.038 | [1] -0.038 | [2] -0.041 | [3] -0.017 | [4] -0.014 | [5] -0.004 | [6] -0.08 | [7] -0.023 | [8] -0.013 | IRAK-1-4 Inhibitor I 0.019

DDX31 (UniProt Q9H8H2)
inactive: erlotinib 0.155 | [1] -0.01 | [2] 0.104 | [3] 0.028 | [4] -0.023 | [5] 0.021 | [6] -0.047 | [7] -0.084 | [8] 0.135 | IRAK-1-4 Inhibitor I -0.013

DCTPP1 (UniProt Q9H773)
inactive: erlotinib -0.02 | [1] -0.017 | [2] 0.015 | [3] 0.014 | [4] 0.006 | [5] -0.011 | [6] -0.015 | [7] 0.058 | [8] 0.102 | IRAK-1-4 Inhibitor I 0.007

DAP3 (UniProt P51398)
inactive: erlotinib -0.003 | [1] -0.033 | [2] 0.079 | [3] 0.003 | [4] -0.006 | [5] -0.014 | [6] -0.026 | [7] 0.009 | [8] 0.014 | IRAK-1-4 Inhibitor I 0.01

DDX47 (UniProt Q9H0S4)
inactive: erlotinib -0.025 | [1] -0.088 | [2] -0.049 | [3] -0.03 | [4] -0.028 | [5] 0.014 | [6] -0.004 | [7] 0 | [8] -0.011 | IRAK-1-4 Inhibitor I -0.008

DCP1A (UniProt Q9NPI6)
inactive: erlotinib 0.038 | [1] 0.025 | [2] 0.03 | [3] 0.004 | [4] -0.03 | [5] 0.014 | [6] -0.033 | [7] 0.013 | [8] 0.012 | IRAK-1-4 Inhibitor I -0.045

CZIB (UniProt Q9NWV4)
inactive: erlotinib -0.005 | [1] -0.076 | [2] -0.035 | [3] -0.028 | [4] 0.015 | [5] -0.014 | [6] 0.054 | [7] 0.024 | [8] -0.024 | IRAK-1-4 Inhibitor I 0.009

DCAF8 (UniProt Q5TAQ9)
inactive: erlotinib -0.03 | [1] 0.05 | [2] 0.03 | [3] -0.016 | [4] -0.022 | [5] 0.047 | [6] 0.016 | [7] -0.038 | [8] 0.006 | IRAK-1-4 Inhibitor I -0.026

2 records picked at random from those above:
DDX47 (UniProt Q9H0S4)
inactive: erlotinib -0.025 | [1] -0.088 | [2] -0.049 | [3] -0.03 | [4] -0.028 | [5] 0.014 | [6] -0.004 | [7] 0 | [8] -0.011 | IRAK-1-4 Inhibitor I -0.008

DCAF8 (UniProt Q5TAQ9)
inactive: erlotinib -0.03 | [1] 0.05 | [2] 0.03 | [3] -0.016 | [4] -0.022 | [5] 0.047 | [6] 0.016 | [7] -0.038 | [8] 0.006 | IRAK-1-4 Inhibitor I -0.026

(cont.)

DENND4C (UniProt Q5VZ89)
inactive: erlotinib -0.01 | [1] -0.01 | [2] -0.018 | [3] 0.003 | [4] -0.059 | [5] -0.032 | [6] -0.013 | [7] -0.011 | [8] -0.025 | IRAK-1-4 Inhibitor I -0.002

DERPC (UniProt P0CG12)
inactive: erlotinib -0.016 | [1] -0.022 | [2] 0.069 | [3] -0.075 | [4] 0 | [5] -0.121 | [6] 0.147 | [7] -0.03 | [8] 0.008 | IRAK-1-4 Inhibitor I -0.004

DCAF7 (UniProt P61962)
inactive: erlotinib -0.046 | [1] -0.02 | [2] 0.024 | [3] 0.073 | [4] 0.043 | [5] -0.02 | [6] 0.095 | [7] 0.005 | [8] 0.024 | IRAK-1-4 Inhibitor I 0.021

DEF6 (UniProt Q9H4E7)
inactive: erlotinib 0.02 | [1] 0.07 | [2] -0.072 | [3] 0.067 | [4] -0.104 | [5] 0.016 | [6] -0.131 | [7] 0.05 | [8] 0 | IRAK-1-4 Inhibitor I 0.019

DDRGK1 (UniProt Q96HY6)
inactive: erlotinib -0.063 | [1] -0.085 | [2] 0.013 | [3] 0.012 | [4] -0.039 | [5] -0.079 | [6] -0.033 | [7] -0.021 | [8] 0 | IRAK-1-4 Inhibitor I 0.019

DBI isoform 5 (UniProt P07108)
inactive: erlotinib 0.025 | [1] -0.02 | [2] 0.011 | [3] 0.065 | [4] -0.028 | [5] 0.006 | [6] -0.046 | [7] 0.025 | [8] 0.106 | IRAK-1-4 Inhibitor I 0.006

DCAF6 isoform 3 (UniProt Q58WW2)
inactive: erlotinib -0.05 | [1] 0.024 | [2] 0.008 | [3] 0.03 | [4] -0.015 | [5] -0.008 | [6] -0.017 | [7] -0.003 | [8] -0.013 | IRAK-1-4 Inhibitor I -0.009

DCAF15 (UniProt Q66K64)
inactive: erlotinib 0.007 | [1] 0.071 | [2] 0.043 | [3] 0.028 | [4] -0.032 | [5] 0.009 | [6] -0.081 | [7] -0.04 | [8] 0.033 | IRAK-1-4 Inhibitor I 0

DCPS (UniProt Q96C86)
inactive: erlotinib -0.025 | [1] -0.018 | [2] 0.029 | [3] -0.016 | [4] -0.015 | [5] -0.008 | [6] -0.017 | [7] -0.029 | [8] 0.08 | IRAK-1-4 Inhibitor I 0.005

DERA (UniProt Q9Y315)
inactive: erlotinib -0.008 | [1] 0.008 | [2] 0.028 | [3] 0.014 | [4] 0.015 | [5] 0.001 | [6] 0.019 | [7] 0.013 | [8] 0.023 | IRAK-1-4 Inhibitor I 0.002

DCTN1 (UniProt Q14203)
inactive: erlotinib 0.007 | [1] -0.001 | [2] -0.001 | [3] -0.001 | [4] 0.019 | [5] -0.001 | [6] -0.023 | [7] 0 | [8] -0.003 | IRAK-1-4 Inhibitor I -0.005

DDX42 (UniProt Q86XP3)
inactive: erlotinib -0.005 | [1] 0.033 | [2] -0.002 | [3] -0.009 | [4] -0.005 | [5] 0 | [6] -0.019 | [7] 0.011 | [8] 0.006 | IRAK-1-4 Inhibitor I -0.003

DDB1 (UniProt Q16531)
inactive: erlotinib -0.013 | [1] -0.02 | [2] -0.009 | [3] 0.012 | [4] 0.014 | [5] 0.002 | [6] 0.028 | [7] 0.008 | [8] -0.007 | IRAK-1-4 Inhibitor I 0.006

— the supplement of paper PMC10849652
